Experimental data as given in PubChem BioAssay AID493014 (National Center for Advancing Translational Sciences (NCATS), 2011).
This is one part of the list. These are further read-outs of the screen, such as a control signal, another cell line or another target. No call is given for them. Compounds called inactive in the main read-out are mostly missing here. Words in brackets tell the shape of the fitted curve; partial curves, single points and poor fits give uncertain potencies.

Assay: qHTS Assay to Find Inhibitors of Chronic Active B-Cell Receptor Signaling
Conditions: ABC-DLBCL IkBa-CBG/CBR reporter, luminescence ratio (green luciferase fused to IkBa over red control in TMD8 lymphoma cells), 4 h
In short: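 Concentration-response series (up to 46 uM) were applied to TMD8 dual-reporter cells for 4 h at 37C with doxycycline. Green/red ratio, after filter-overlap correction, defined %Activity; red signal alone was normalised to basal cells and zero luminescence.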

[1] = measured here: CBR red luminescence, cell number
[2] = measured here: IkBa-CBG green luminescence

SMILES	AC50 [1]	AC50 [2]
Fc1cccc(NC(=S)N2CCn3cccc3C2c2cccnc2)c1 (stereo unspecified)	35.5 µM [rising, partial curve, poor fit]	
CC(=O)Nc1ccc(-c2csc(Nc3cccc(C)n3)n2)cc1	3.55 µM [falling, partial curve, poor fit]	
COc1ccc(/C(C)=N/Nc2cc(C(F)(F)F)ccc2Cl)c(OC)c1	14.6 µM [rising, single point]	
O=C1CCC(=O)N1CC(O)COc1ccccc1 (stereo unspecified)	3.55 µM [rising, full curve, poor fit]	
O=C(Nc1ccc2c(c1)OCO2)Nc1ccc(F)cc1F	5.01 µM [falling, partial curve]	
COc1ccc(-n2cc(CNCCCN3CCCC3=O)c(-c3ccccc3Cl)n2)cc1	4.47 µM [rising, full curve, poor fit]	
C=CCOc1nc(-c2ccncc2)nc2ccccc12	20 µM [falling, partial curve, poor fit]	
CCC(Oc1ccccc1)C(=O)Nc1ccc(-c2nnc(-c3ccco3)o2)cc1 (stereo unspecified)	1.3 µM [rising, full curve, poor fit]	
CCOCc1cn(CC(=O)c2ccc(Cl)cc2)c(C)nc1=N	0.517 µM [rising, full curve, poor fit]	
Clc1ccc(OCCCn2cncn2)cc1Cl	29.1 µM [rising, single point]	
Cc1cccc(CCNC(=O)CCNS(=O)(=O)c2cc(Br)cnc2N)c1	6.31 µM [falling, full curve, poor fit]	
Cc1cnc(NC(=O)c2ccc(OCC3CCCO3)cc2)s1 (stereo unspecified)	7.08 µM [falling, partial curve]	
CN(C)c1nc(NC(C)(C)C)nc(SCC(=O)Nc2ccccc2)n1	2.51 µM [rising, partial curve, poor fit]	
NC(=Nc1ccc(N)cc1)C(N)=Nc1ccc(N)cc1	11.2 µM [falling, partial curve, poor fit]	
O=C(COc1ccccc1)NNC1=NS(=O)(=O)c2ccccc21	15.8 µM [falling, single point]	
O=C(CN1C(=O)c2ccccc2S1(=O)=O)NC1CC2CCC1C2 (stereo unspecified)	0.231 µM [rising, full curve, poor fit]	
Cn1ncc(Br)c1C(=O)OCC(=O)Nc1nc(-c2ccccc2)cs1	5.17 µM [falling, full curve]	
COc1ccc(/C=N/NC(=O)c2ccn[nH]2)cc1COc1ccc([N+](=O)[O-])c(C)c1	35.5 µM [falling, single point]	
COCC(C)NC(=O)NC(=O)c1ccc(Cl)cc1 (stereo unspecified)	2.91 µM [rising, partial curve, poor fit]	
CCN(c1ccccc1)S(=O)(=O)c1cc(C(=O)NCC(c2ccco2)N2CCCCC2)ccc1C (stereo unspecified)	29.1 µM [falling, single point]	
CN1CCN(C(=O)C2=C[C@H](c3csc4ccccc34)C[C@H](OCCCCO)O2)CC1	0.794 µM [rising, full curve, poor fit]	
CCCCN(CCCNC(=O)C1CCN(S(=O)(=O)N2CCOCC2)CC1)c1ccccc1	35.5 µM [falling, single point]	

SMILES	AC50 [1]	AC50 [2]
Cc1c(OC(C)C(=O)NCCN2CCOCC2)ccc2c3c(c(=O)oc12)CCCC3 (stereo unspecified)	11.2 µM [rising, single point]	
CCc1ccc(CN(C)Cc2nc(-c3cccc(Cl)c3)no2)nc1	11.2 µM [rising, single point]	
COc1ccc2c(c1)CCc1c-2n[nH]c1C(=O)NCCC(C)C	35.5 µM [falling, single point]	
CCOC(=O)c1cccc(Nc2nc(-c3cccnc3)nc3ccccc23)c1	12.6 µM [falling, single point]	
C=CCOc1ccccc1C(=O)/C=C1/C(=O)Nc2ccccc21	20 µM [falling, single point]	
Cc1noc(C)c1COc1ccccc1C(=O)NC1CCC(C)CC1 (stereo unspecified)	2.82 µM [rising, single point]	
Cc1ccccc1C(=O)Nc1cccc(NC(=O)c2ccc(F)cc2)c1	7.08 µM [falling, partial curve, poor fit]	
Cc1cc(C)nc(NC(=O)c2ccc(Cl)cc2Cl)n1	31.6 µM [rising, single point]	
Cc1cc(=O)oc(C)c1C(=O)OCC(=O)c1ccc(Cl)c(Cl)c1	20.6 µM [rising, single point]	
COc1ccc([N+](=O)[O-])cc1/C=N/NC(=O)Cc1ccccc1	11.2 µM [rising, partial curve]	
COc1ccc(C2CC(c3ccccc3O)=NN2C(=O)c2ccccc2)cc1OC (stereo unspecified)	15.8 µM [falling, single point]	
COc1ccc(-c2ccc(/C=C3/C(=N)N4C(C)=CSC4=NC3=O)o2)c([N+](=O)[O-])c1	25.9 µM [rising, partial curve, poor fit]	
CC(=O)N1CCN(c2ccc(NC(=O)c3ccccc3)cc2)CC1	11.2 µM [falling, partial curve, poor fit]	
O=C(Nc1nsc(-c2ccccc2)n1)c1cccs1	0.92 µM [falling, full curve]	
O=C(c1cccs1)[C@@H]1[C@@H]2C(=O)N(Cc3ccc4c(c3)OCO4)C(=O)[C@@H]2C2c3ccccc3C=CN21 (stereo partly specified)	22.4 µM [falling, single point]	
CCn1nnc2sc3c(c2c1=O)CCC(C)C3 (stereo unspecified)	2 µM [rising, full curve, poor fit]	
CSc1ccc(CNc2ccc(C)cc2)cc1	5.01 µM [rising, full curve]	
Cc1ccc(NC(=O)C2C(=O)N(C)c3ccccc32)cc1 (stereo unspecified)	0.0184 µM [rising, full curve, poor fit]	
COc1cc(Cl)cc(C(=O)O)c1OCC(=O)O	3.98 µM [rising, full curve, poor fit]	
Cc1nc(Nc2ccc(Cl)cc2)c(C#N)c(=O)[nH]1	15.8 µM [rising, partial curve, poor fit]	
O=C1SCCc2c1n(Cc1ccccc1)c1ccccc21	1.16 µM [rising, partial curve, poor fit]	
C(=N\Nc1nc(N2CCCC2)nc(N2CCCC2)n1)/c1ccncc1	0.1 µM [falling, full curve, poor fit]	

SMILES	AC50 [1]	AC50 [2]
Cc1ccccc1NC(=O)C(=O)c1cn(C)c2ccccc12	6.31 µM [falling, partial curve, poor fit]	
CN1CCN(c2ccccc2NC(=O)c2cc3c(s2)-c2ccccc2OC3)CC1	15.8 µM [falling, partial curve, poor fit]	
N#C/C(=C/N1CCOCC1)c1ccccc1	35.5 µM [falling, single point]	
COc1ccc(C(=O)CCS(=O)(=O)c2ccc(C)cc2)cc1OC	17.8 µM [falling, single point]	
Cc1ccc(NC(NC(=O)c2cccs2)C(Cl)(Cl)Cl)cc1C (stereo unspecified)	35.5 µM [falling, single point]	
Cc1cc2cc(CNC(=S)Nc3ccc(OC(F)F)cc3)ccc2[nH]1	8.2 µM [falling, partial curve, poor fit]	23.1 µM [falling, single point]
Cc1ccc2cccc(OCc3ccccc3)c2n1	0.794 µM [rising, full curve, poor fit]	
CC1(C)CC(=O)C2=C(C1)OC(N)=C(C#N)C2c1ccsc1 (stereo unspecified)	4.61 µM [falling, partial curve, poor fit]	
Cc1ccc(NC(=S)c2nc3ccccc3s2)cc1	3.16 µM [falling, full curve]	
C[C@H](CO)N1C[C@H](C)[C@@H](CN(C)Cc2ccc3c(c2)OCO3)Oc2c(NC(=O)Cc3ccccc3)cccc2C1=O	16.4 µM [falling, single point]	
COC(=O)C(C)Oc1ccc2c(c1)O/C(=C\c1cccc(Br)c1)C2=O (stereo unspecified)	20 µM [rising, partial curve, poor fit]	
O=C(NCCN1CCOCC1)c1c(O)nc2ccccn2c1=O	12.6 µM [rising, partial curve, poor fit]	
COc1ccc(-c2c(C#Cc3ccsc3)c3cc(-c4cccc5[nH]ccc45)ccc3n2C)cc1	29.1 µM [falling, single point]	
COc1ccc(NCc2nnc(SCc3ccc(Cl)cc3)n2-c2ccccc2)cc1	18.4 µM [falling, single point]	
CCN(CC)S(=O)(=O)c1ccc2oc(C(=O)N3CCc4ccccc4C3)c(C)c2c1	32.6 µM [falling, single point]	
CCCCn1c(C)cc(C)c(S(=O)(=O)c2ccccc2C)c1=O	13 µM [falling, partial curve, poor fit]	
Cc1nn2c(-c3cccc(NC(=O)c4ccco4)c3)nnc2c2ccccc12	13 µM [rising, single point]	
Cc1cccc(NC(=O)CSc2nc3ccccc3c(=O)n2C)c1	2.51 µM [falling, full curve]	
C=CCc1c(C)nc(-c2ccccc2)nc1N/N=C(\C)c1ccccc1		3.26 µM [rising, full curve]
O=C(C1=C[C@H](C2CCCCC2)C[C@H](OCc2ccc(CO)cc2)O1)N1CCN(Cc2ccc3c(c2)OCO3)CC1	35.5 µM [falling, single point]	
O=C(NC(=S)N1CCc2ccccc21)c1ccccc1	3.26 µM [falling, single point]	
